Assay results published in patent US10519504B2, “Methods for treatment of oncological disorders using epimetabolic shifters, multidimensional intracellular molecules, or environmental influencers” (Berg LLC, priority 2009, dated 2019).

Test system: SK-MEL-28 mitochondria
Details: 100 μM Q10

COC1=C(OC)C(=O)C(C/C=C(\C)CC/C=C(\C)CC/C=C(\C)CC/C=C(\C)CC/C=C(\C)CC/C=C(\C)CC/C=C(\C)CC/C=C(\C)CC/C=C(\C)CCC=C(C)C)=C(C)C1=O [Q10, Coenzyme Q10]
levels of Q9: low, and near the level of detection
Cholesterol (48 hr Q10 treated): 13.86 μg/sample
